Reference: paper PMC10015868

Target: T1, Flag‐tagged IKKβ (UniProt O14920)
T1 sequence: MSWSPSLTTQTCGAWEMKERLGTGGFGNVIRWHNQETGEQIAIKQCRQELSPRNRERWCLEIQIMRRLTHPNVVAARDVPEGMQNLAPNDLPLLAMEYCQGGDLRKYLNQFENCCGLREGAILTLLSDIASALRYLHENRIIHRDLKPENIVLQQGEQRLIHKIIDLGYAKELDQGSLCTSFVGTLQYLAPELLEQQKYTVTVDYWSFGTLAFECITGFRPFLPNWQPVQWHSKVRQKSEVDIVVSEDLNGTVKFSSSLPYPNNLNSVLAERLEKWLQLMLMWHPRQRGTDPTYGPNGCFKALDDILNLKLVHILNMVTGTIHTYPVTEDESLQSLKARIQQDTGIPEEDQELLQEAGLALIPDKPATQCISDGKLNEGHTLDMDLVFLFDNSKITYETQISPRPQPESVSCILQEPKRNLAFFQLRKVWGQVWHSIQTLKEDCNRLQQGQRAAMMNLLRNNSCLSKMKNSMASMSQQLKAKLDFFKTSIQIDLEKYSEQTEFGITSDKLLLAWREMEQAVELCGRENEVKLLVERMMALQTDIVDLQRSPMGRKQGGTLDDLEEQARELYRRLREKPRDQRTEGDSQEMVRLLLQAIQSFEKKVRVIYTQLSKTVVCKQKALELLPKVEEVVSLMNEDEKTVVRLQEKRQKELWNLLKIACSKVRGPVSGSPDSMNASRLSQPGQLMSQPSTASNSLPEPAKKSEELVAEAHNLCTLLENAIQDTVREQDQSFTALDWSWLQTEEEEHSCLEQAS
Assay: co-IP; HEK293T cells transfected with tagged plasmids (in some panels with circWDR37 or forced PKR expression); lysed in coIP buffer, antibody at 4 °C overnight, beads 1 h at room temperature, washed ten times, western blot

binding: binds
Substance: PKR‐KD (KD domain of PKR), HA-tagged (domain or fragment)

No constants are given. Whether binding was seen depends on the method and setting. Binding seen in cells or lysates may run through a third protein. Binding can be weak; no strength is given. Tags and fused reporters may be left off the sequences shown.
